System: mouse spleen lymphocytes
Assay: Cytotoxicity against mouse spleen lymphocytes
Format: cell-based
Conditions: unitless; cytotoxicity/efficacy against D6

Row | SMILES | T.I. (therapeutic index)
1 | Clc1ccc2c(NCCCN3CCN(c4ccccc4)CC3)ccnc2c1 [Compound 9, 7-Chloro-N-(3-(4-phenylpiperazin-1-yl)propyl)quinolin-4-amine] | 16,000
2 | Clc1ccc2c(NCCCN3CCN(c4ccccn4)CC3)ccnc2c1 [Compound 21, 7-Chloro-N-(3-(4-(pyridin-2-yl)piperazin-1-yl)propyl)quinolin-4-amine] | 19,000

From article PMC5404532, “Simplified Reversed Chloroquines To Overcome Malaria Resistance to Quinoline-Based Drugs” (Antimicrobial Agents and Chemotherapy, 2017)
